Some entries of the source have several records that differ or are many. This is not the full list of results. The source may hold further records. The values listed for one entry read as repeated measurements (runs, samples, wells or individuals).
Tested on: NHE-3
Experiment: NHE-3 inhibitory effect in PS120 cell line expressing NHE-3

**Q.** How did the “NHE-3 inhibitory effect, Inhibition at 30 μM” value (PS120 cells expressing NHE-3, tested form: methanesulfonate, methanesulfonate) turn out when `CS(=O)(=O)O.N=C(N)NC(=O)c1ccc(-c2ccccc2)o1` [Example 4, [5-phenylfuran-2-ylcarbonyl]guanidine methanesulfonate] was run?
**A.** no NHE-3 inhibitory effect at all and 0%

**Q.** For `N=C(N)NC(=O)c1ccc(-c2cccc(Cl)c2)o1` [Example 6, [5-(3-chlorophenyl)furan-2-ylcarbonyl]guanidine], which “NHE-3 inhibitory effect, Inhibition at 30 μM” value (PS120 cells expressing NHE-3) is on record?
**A.** no NHE-3 inhibitory effect at all and 0%

From patent publication US7351843B2, “Furancarbonylguanidine derivatives, their preparation and pharmaceutical compositions containing them” (Korea Research Institute of Chemical Technology, priority 2003, dated 2008)
